The source of these data is PMC7819943, “Rice protein-binding microarrays: a tool to detect cis-acting elements near promoter regions in rice”.

Some of the results follow.

This test concerns the target T1, OsSMF1 (Oryza sativa, UniProt Q6ZLB0 1-436).
T1 sequence: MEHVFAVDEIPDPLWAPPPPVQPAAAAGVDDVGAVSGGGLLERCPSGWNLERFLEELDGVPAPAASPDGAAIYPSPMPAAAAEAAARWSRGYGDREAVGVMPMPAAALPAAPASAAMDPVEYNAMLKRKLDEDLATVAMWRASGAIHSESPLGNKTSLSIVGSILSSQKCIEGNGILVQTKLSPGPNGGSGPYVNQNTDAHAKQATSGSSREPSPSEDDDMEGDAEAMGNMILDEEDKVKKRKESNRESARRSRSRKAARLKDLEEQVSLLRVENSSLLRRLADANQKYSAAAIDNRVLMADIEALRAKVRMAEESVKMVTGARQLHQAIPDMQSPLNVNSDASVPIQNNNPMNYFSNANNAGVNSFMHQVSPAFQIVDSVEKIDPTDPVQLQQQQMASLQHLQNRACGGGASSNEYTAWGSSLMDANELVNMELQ
Put plainly: protein-binding microarray (RPBM); PBS, 2% BSA, 51.3 ng/ul salmon testes DNA, 50 uM zinc acetate, 200 nM TF, 25 C, 1 h; high values mean tight binding. Particulars: protein: recombinant; tags: N-terminal polyhistidine and DsRed monomer fusion (pET32a); chain copies: 2; label: CyDye5-dUTP incorporated in the synthesized complementary strand; 3' TTTTT single-stranded linker to array surface; dsDNA, one strand shown. In outline: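 A custom Agilent array was converted to double-stranded form by primer extension with Cy5-dUTP and blocked with 2% BSA. Protein at 200 nM in PBS with 2% BSA, salmon testes DNA and 50 µM zinc acetate was applied for 1 h at 25 °C, followed by washing. The proteins were polyhistidine–DsRed N-terminal fusions of transcription factors, expressed in E. coli BL21-CodonPlus and Ni–NTA-purified. The binding signal is per-feature fluorescence intensity (arbitrary units) from an Axon 4000B scanner.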
For “GAAGGTCTCCCTCCTCAGCGCCGTCATCAAGCACATGAGCCGGAGTCACCTAGTGCAG”, the binding signal is 4320 fluorescence intensity (a.u.). As to “CCACCACCGCCACCGCCACCGCCACCGCCCCTACACCTGCCGGAGTCACCTAGTGCAG”, the binding signal is 4710 fluorescence intensity (a.u.). For “CTAGGAGAGGGAAAAGGCAAAGATACTGATACATACATGACGGAGTCACCTAGTGCAG”, the binding signal is 3360 fluorescence intensity (a.u.). For “CCGGTTTTCTCCGCAGTTTCTTGATCCATCCGCCTTTCCTCGGAGTCACCTAGTGCAG”, the binding signal is 4640 fluorescence intensity (a.u.). In the case of “TAGCGCGCGAAGGGACGCCATGGCCGCCACGCACGCACCTCGGAGTCACCTAGTGCAG”, the binding signal was 10900 fluorescence intensity (a.u.). On to “CTTCCCATCCCAGCCGCCACGCCCACGCGTCGCAAGCCGCCGGAGTCACCTAGTGCAG”, for which the binding signal is 5290 fluorescence intensity (a.u.). Regarding “ATCGGACATTAAACCACCCAAAGTTGACGGTTTGCTTGGTCGGAGTCACCTAGTGCAG”, the binding signal was 3240 fluorescence intensity (a.u.).

Turning to “CCAAGCGCGCGCGTCGCTGGTCCAACGCGGACGGAGCCGGCGGAGTCACCTAGTGCAG”, the binding signal was 3400 fluorescence intensity (a.u.). Turning to “TCCTGAACAGCATCGCAACTGGAAGAAGACGGAGGGAGGGCGGAGTCACCTAGTGCAG”, the binding signal is 36700 fluorescence intensity (a.u.). Regarding “CCCCTCCTCCCCTTCTCTCCCCTCTCCTCCTCGCTTCCGGCGGAGTCACCTAGTGCAG”, the binding signal is 3950 fluorescence intensity (a.u.). For the sequence “GGTAGGGTTGGGATGGGATGTGCAAGTAACCCGGGTGGATCGGAGTCACCTAGTGCAG”, the binding signal is 4060 fluorescence intensity (a.u.). In the case of “CGTGCGCGTGGCGTGGCGTGGCGTGACGCGGCGATGGCGGCGGAGTCACCTAGTGCAG” it was 9130 fluorescence intensity (a.u.); in that of “TTAGTCAAAACCGTTGAGGGATTCAATTTGCACTAATTTTCGGAGTCACCTAGTGCAG”, 27600 fluorescence intensity (a.u.). Regarding “TATAACTCGCAGCCCATCTCACGGCGAGGAGCGAGCTAAACGGAGTCACCTAGTGCAG”, the binding signal was 19000 fluorescence intensity (a.u.). In the case of “TGTGTATTCATAGGGGCGAGTGAGCGTGCGTTGTGAGTATCGGAGTCACCTAGTGCAG” it was 3360 fluorescence intensity (a.u.); in that of “CTTGTCTAGTGGGCCTCTATGAAACGTGGCCCAACTTCCCCGGAGTCACCTAGTGCAG”, 4560 fluorescence intensity (a.u.). With “CATCCAGCTAGTTGTATATACTTACTCCATCTGTCCAAAACGGAGTCACCTAGTGCAG”, the binding signal was 3160 fluorescence intensity (a.u.). Consider “TTCTTGGGGCTGGAGAGGGTGGGGATGGTGGTGCGGATGCCGGAGTCACCTAGTGCAG”, for which the binding signal was 3560 fluorescence intensity (a.u.). For “GCTCCATCCCGAGGCAGGAGGCGGAGGAAGGGCAGGGCGGCGGAGTCACCTAGTGCAG”, the binding signal was 27600 fluorescence intensity (a.u.). The value for “TTTGTTGTACTAGGATGTGTCACATCCGGTACTAGGTTGGCGGAGTCACCTAGTGCAG” was 4570 fluorescence intensity (a.u.); that for “GCTTTGCCACGCAGATCGCGGTCGTTTTCAATCGCACCGGCGGAGTCACCTAGTGCAG” was 5280 fluorescence intensity (a.u.).

As to “TTGCTCACTTGTTCTGTTCTTGCCCGGTCAACTTGCGACGCGGAGTCACCTAGTGCAG”, the binding signal is 3450 fluorescence intensity (a.u.). Take “TGAACGTTTTGATGTGTTCACACATTACACGTTACTAGTACGGAGTCACCTAGTGCAG”: the binding signal is 3700 fluorescence intensity (a.u.). Consider “CTCGGGGCAAACTTGGGACCCACGCGTCAGCCTTTTCTTTCGGAGTCACCTAGTGCAG”, for which the binding signal was 5480 fluorescence intensity (a.u.). In the case of “TATTGATTTCCACTATTCCCTTTGTAATCTGTGATTTCCACGGAGTCACCTAGTGCAG”, the binding signal is 3380 fluorescence intensity (a.u.). For the sequence “GAAATTCGCGGATGCCGCGTGCGCGTCATACCCTGAACCTCGGAGTCACCTAGTGCAG”, the binding signal is 6200 fluorescence intensity (a.u.).

“GTTCATGAGTACCGAAAGGTGGATTCTTTTCAGTTTCTTGCGGAGTCACCTAGTGCAG”: the binding signal is 3750 fluorescence intensity (a.u.). In the case of “CGTCCGATCCACCGATTTGCCACGAATTGCTGTTATTGTTCGGAGTCACCTAGTGCAG” it was 3400 fluorescence intensity (a.u.); in that of “GGCGTTGGCTTGGCCCGGCGGCGGTGATGTGGCGCGTGACCGGAGTCACCTAGTGCAG”, 7030 fluorescence intensity (a.u.).

Regarding “TACCGTTCATCCACGTCTCATCTAATCTCATCCGTCCGCTCGGAGTCACCTAGTGCAG”, the binding signal was 5400 fluorescence intensity (a.u.). “CCAGTGAGCCACGGCTACCCATCTGGATCCAGCTCCTCCACGGAGTCACCTAGTGCAG”: the binding signal was 3610 fluorescence intensity (a.u.). Consider “GCCCCACTCCCAACCCATCTCCACCGTCCGTCTCCATCCGCGGAGTCACCTAGTGCAG”, for which the binding signal was 3610 fluorescence intensity (a.u.).

Regarding “AGTGGGCCCACGTGCCACGTCACCCGCGGTGTGAATGTGTCGGAGTCACCTAGTGCAG”, the binding signal is 19200 fluorescence intensity (a.u.). For the sequence “CACAGATCACCAAGCCACAATCGCCCACACACAAATACTCCGGAGTCACCTAGTGCAG”, the binding signal was 3480 fluorescence intensity (a.u.). For “ATTTCACCTTGCGCCTCAGTCAGCTTTCATCACCACAGCACGGAGTCACCTAGTGCAG”, the binding signal was 3580 fluorescence intensity (a.u.). On to “TGGACCCACATGTCAGTGACTCAATGTCACCGAGAATGTCCGGAGTCACCTAGTGCAG”, for which the binding signal was 6000 fluorescence intensity (a.u.). Turning to “GTTCAGAATCTCCCGGACGGAGCACGAACATGTGTGTTGTCGGAGTCACCTAGTGCAG”, the binding signal was 3250 fluorescence intensity (a.u.). The value for “GGCCAGTTCTCTTCCACGTGGAGGCGGCCTCTCACAGCCGCGGAGTCACCTAGTGCAG” was 10300 fluorescence intensity (a.u.). As to “CTAGGGATTTAAACTCCAGAAGTTGTAATTTTGTGATAAGCGGAGTCACCTAGTGCAG”, the binding signal is 27500 fluorescence intensity (a.u.). As for “GGACTGACTTTTGAGTGATCGTCAAACCCGTTGTTACATGCGGAGTCACCTAGTGCAG”, the binding signal is 3620 fluorescence intensity (a.u.). In the case of “CTTATTCTCATGTGGTGTGATGTGTAATTCACATGGTTGACGGAGTCACCTAGTGCAG”, the binding signal was 7100 fluorescence intensity (a.u.). With “GCAAAGAGCCTGCTGAAGACAATGACGATGGACCAGGTATCGGAGTCACCTAGTGCAG”, the binding signal is 3390 fluorescence intensity (a.u.).
